# From patent US10336792B2 (priority 2014, dated 2019)
# Positions of bridges follow the written chain, without caps; N, C: chain ends. Non-standard residues stand in square brackets, D forms with d. Residues, ends and D or L forms follow the SMILES beside them. Groups on a side chain read outwards from the residue. Chains are numbered I, II in the order given. Dab = NCC[C@H](N)C(=O)O
# Columns and labels:
# Format in all cases: cell-based
# [1] = tested on: Pseudomonas aeruginosa (strain PA01); settings: MHC on hRBC / MIC PAO1
# Protocol: (§1) Antimicrobial activity was assayed against Bacillus subtilis (strain BR151), Escherichia coli (strain DH5α) and Pseudomonas aeruginosa (strain PA01). Microdilution broth method was used to determine the minimal inhibitory concentration (MIC). A colony of bacteria was grown in LB-medium overnight at 37° C. The concentration was quantified by measuring absorbance at 600 nm and diluted to OD600=0.1 (1×10^8 CFU/mL). The samples were prepared as stock solutions of 1 mg mL^−1 in H2O and diluted serially by ⅔ in nutrient LB in a 96-well microtiterplate (Cornstar, polypropylene, untreated). The sample solutions (50 μL) were mixed with the diluted bacterial suspension with an OD600 nm of 0.001 (50 μL). […] The plates were incubated at 37° C. until satisfactory growth (18-24 h). For each test, two columns of the plate were kept for sterility control (SC, broth only) and growth control (GC, broth with bacterial inoculums, no antibiotics). 10 μL of a solution of MTT (0.1% in H2O) was added to each well. The minimal inhibitory concentration (MIC) was defined as the lowest concentration of the antimicrobial substance (peptide dendrimer) that inhibited visible growth of the tested bacteria (yellow) with the unaided eye. For microbiological study the linear peptide LysTyrLysLysAlaLeuLysLysLeuAlaLysLeuLeu (SEQ ID No. 1) was used as reference.
# All peptides were tested for their activity against P. aeruginosa PAO1 in a broth dilution assay (Wiegand, I. et al., 2008, Nat. Protoc., 3, 163-75; Clinical and Laboratory Standards Institute document M7-A7 7th Edition) to determine the MIC (minimal inhibitory concentration) values. The stock solutions of the peptide dendrimers were diluted serially by ⅔ in nutrient LB in 96-well microtiter plates. Bacteria were grown in nutrient LB overnight at 37° C. After dilution the bacteria were added to the peptides and incubated overnight (18-24 h) at 37° C. […] The position of the amino acids between the branching units seems to be optimal if the hydrophobic amino acid is the first counting from C-terminus and the charged one is on the second position. Introducing Ala as additional hydrophobic amino acid reduces activity (MSt-120). […] Also assembling charged or hydrophobic sections between the branching units leads to loss of activity whereas altering L-amino acids to D-amino acids maintains activity leading to the hypothesis that the mechanism of action should not be receptor mediated.
# [2] = tested on: Bacillus subtilis (strain BR151); settings: MHC on hRBC / MIC B. subtilis
# Protocol: as §1
# (§2) The AMPD library was tested for their antimicrobial activity against B. subtilis BR151, a Gram-positive bacterium and E. coli DH5α, another Gram-negative bacterium, to cover a broader spectrum of different bacteria. […] Therefore no explicit SAR can be established, but clearly the hydrophobic amino acids Ala and Tyr seem to have a significant influence in reducing activity.
# [3] = tested on: Escherichia coli (strain DH5α); settings: MHC on hRBC / MIC E. coli
# Protocol: as §1, §2
SMILES,"TI (therapeutic index = MHC/MIC), P. aeruginosa PAO1 [1]","TI (MHC/MIC), B. subtilis BR151 [2]","TI (MHC/MIC), E. coli DH5α [3]"
"CC(C)C[C@H](NC(=O)[C@H](CCCCN)NC(=O)[C@H](CCCCNC(=O)[C@H](CC(C)C)NC(=O)[C@H](CCCCN)NC(=O)[C@H](CCCCNC(=O)[C@H](CC(C)C)NC(=O)[C@H](CCCCN)NC(=O)[C@H](CCCCNC(=O)[C@H](CC(C)C)NC(=O)[C@@H](N)CCCCN)NC(=O)[C@H](CC(C)C)NC(=O)[C@@H](N)CCCCN)NC(=O)[C@H](CC(C)C)NC(=O)[C@H](CCCCN)NC(=O)[C@H](CCCCNC(=O)[C@H](CC(C)C)NC(=O)[C@@H](N)CCCCN)NC(=O)[C@H](CC(C)C)NC(=O)[C@@H](N)CCCCN)NC(=O)[C@H](CC(C)C)NC(=O)[C@H](CCCCN)NC(=O)[C@H](CCCCNC(=O)[C@H](CC(C)C)NC(=O)[C@H](CCCCN)NC(=O)[C@H](CCCCNC(=O)[C@H](CC(C)C)NC(=O)[C@@H](N)CCCCN)NC(=O)[C@H](CC(C)C)NC(=O)[C@@H](N)CCCCN)NC(=O)[C@H](CC(C)C)NC(=O)[C@H](CCCCN)NC(=O)[C@H](CCCCNC(=O)[C@H](CC(C)C)NC(=O)[C@@H](N)CCCCN)NC(=O)[C@H](CC(C)C)NC(=O)[C@@H](N)CCCCN)C(N)=O [MSt-112, (KL)8(KKL)4(KKL)2(KKL)] (I: H-KLK([Leu-Lys])KLKKLKKL-NH2 / II: H-KLK([Leu-Lys])KLKKL / III: H-KLK([Leu-Lys])KL / IV: H-KLK([Leu-Lys])KL; amide I:6-IV:C, I:9-II:C, II:6-III:C)",419,279,210
"CC(C)C[C@H](NC(=O)[C@H](CCCCN)NC(=O)[C@H](CCCCNC(=O)[C@H](CC(C)C)NC(=O)[C@H](CCCCN)NC(=O)[C@H](CCCCNC(=O)[C@H](CC(C)C)NC(=O)[C@H](CCCCN)NC(=O)[C@H](CCCCNC(=O)[C@H](Cc1ccc(O)cc1)NC(=O)[C@@H](N)CCCCN)NC(=O)[C@H](Cc1ccc(O)cc1)NC(=O)[C@@H](N)CCCCN)NC(=O)[C@H](CC(C)C)NC(=O)[C@H](CCCCN)NC(=O)[C@H](CCCCNC(=O)[C@H](Cc1ccc(O)cc1)NC(=O)[C@@H](N)CCCCN)NC(=O)[C@H](Cc1ccc(O)cc1)NC(=O)[C@@H](N)CCCCN)NC(=O)[C@H](CC(C)C)NC(=O)[C@H](CCCCN)NC(=O)[C@H](CCCCNC(=O)[C@H](CC(C)C)NC(=O)[C@H](CCCCN)NC(=O)[C@H](CCCCNC(=O)[C@H](Cc1ccc(O)cc1)NC(=O)[C@@H](N)CCCCN)NC(=O)[C@H](Cc1ccc(O)cc1)NC(=O)[C@@H](N)CCCCN)NC(=O)[C@H](CC(C)C)NC(=O)[C@H](CCCCN)NC(=O)[C@H](CCCCNC(=O)[C@H](Cc1ccc(O)cc1)NC(=O)[C@@H](N)CCCCN)NC(=O)[C@H](Cc1ccc(O)cc1)NC(=O)[C@@H](N)CCCCN)C(N)=O [MSt-114, (KY)8(KKL)4(KKL)2(KKL)] (I: H-KYK([Tyr-Lys])KLKKLKKL-NH2 / II: H-KYK([Tyr-Lys])KLKKL / III: H-KYK([Tyr-Lys])KL / IV: H-KYK([Tyr-Lys])KL; amide I:6-IV:C, I:9-II:C, II:6-III:C)",314,48,18
"NCC[C@H](NC(=O)[C@H](CCCCNC(=O)[C@H](Cc1c[nH]c2ccccc12)NC(=O)[C@H](CCN)NC(=O)[C@H](CCCCNC(=O)[C@H](Cc1c[nH]c2ccccc12)NC(=O)[C@@H](N)CCN)NC(=O)[C@H](Cc1c[nH]c2ccccc12)NC(=O)[C@@H](N)CCN)NC(=O)[C@H](Cc1c[nH]c2ccccc12)NC(=O)[C@H](CCN)NC(=O)[C@H](CCCCNC(=O)[C@H](Cc1c[nH]c2ccccc12)NC(=O)[C@@H](N)CCN)NC(=O)[C@H](Cc1c[nH]c2ccccc12)NC(=O)[C@@H](N)CCN)C(=O)N[C@@H](Cc1c[nH]c2ccccc12)C(N)=O [MSt-176, (DabW)4(KDabW)2(KDabW)] (I: H-[Dab]WK([Trp-Dab])[Dab]WK[Dab]W-NH2 / II: H-[Dab]WK([Trp-Dab])[Dab]W; amide I:6-II:C; N-terminus assumed)",46,46,15
"CC(C)C[C@H](NC(=O)[C@H](CCCNC(=N)N)NC(=O)[C@H](CCCCNC(=O)[C@H](CC(C)C)NC(=O)[C@H](CCCNC(=N)N)NC(=O)[C@H](CCCCNC(=O)[C@H](CC(C)C)NC(=O)[C@H](CCCNC(=N)N)NC(=O)[C@H](CCCCNC(=O)[C@H](CC(C)C)NC(=O)[C@@H](N)CCCNC(=N)N)NC(=O)[C@H](CC(C)C)NC(=O)[C@@H](N)CCCNC(=N)N)NC(=O)[C@H](CC(C)C)NC(=O)[C@H](CCCNC(=N)N)NC(=O)[C@H](CCCCNC(=O)[C@H](CC(C)C)NC(=O)[C@@H](N)CCCNC(=N)N)NC(=O)[C@H](CC(C)C)NC(=O)[C@@H](N)CCCNC(=N)N)NC(=O)[C@H](CC(C)C)NC(=O)[C@H](CCCNC(=N)N)NC(=O)[C@H](CCCCNC(=O)[C@H](CC(C)C)NC(=O)[C@H](CCCNC(=N)N)NC(=O)[C@H](CCCCNC(=O)[C@H](CC(C)C)NC(=O)[C@@H](N)CCCNC(=N)N)NC(=O)[C@H](CC(C)C)NC(=O)[C@@H](N)CCCNC(=N)N)NC(=O)[C@H](CC(C)C)NC(=O)[C@H](CCCNC(=N)N)NC(=O)[C@H](CCCCNC(=O)[C@H](CC(C)C)NC(=O)[C@@H](N)CCCNC(=N)N)NC(=O)[C@H](CC(C)C)NC(=O)[C@@H](N)CCCNC(=N)N)C(N)=O [MSt-242, (RL)8(KRL)4(KRL)2(KRL)] (I: H-RLK([Leu-Arg])RLKRLKRL-NH2 / II: H-RLK([Leu-Arg])RLKRL / III: H-RLK([Leu-Arg])RL / IV: H-RLK([Leu-Arg])RL; amide I:6-IV:C, I:9-II:C, II:6-III:C)",11,8,29
"CC(C)C[C@@H](NC(=O)[C@@H](CCCCN)NC(=O)[C@@H](CCCCNC(=O)[C@@H](CC(C)C)NC(=O)[C@@H](CCCCN)NC(=O)[C@@H](CCCCNC(=O)[C@@H](CC(C)C)NC(=O)[C@@H](CCCCN)NC(=O)[C@@H](CCCCNC(=O)[C@@H](CC(C)C)NC(=O)[C@H](N)CCCCN)NC(=O)[C@@H](CC(C)C)NC(=O)[C@H](N)CCCCN)NC(=O)[C@@H](CC(C)C)NC(=O)[C@@H](CCCCN)NC(=O)[C@@H](CCCCNC(=O)[C@@H](CC(C)C)NC(=O)[C@H](N)CCCCN)NC(=O)[C@@H](CC(C)C)NC(=O)[C@H](N)CCCCN)NC(=O)[C@@H](CC(C)C)NC(=O)[C@@H](CCCCN)NC(=O)[C@@H](CCCCNC(=O)[C@@H](CC(C)C)NC(=O)[C@@H](CCCCN)NC(=O)[C@@H](CCCCNC(=O)[C@@H](CC(C)C)NC(=O)[C@H](N)CCCCN)NC(=O)[C@@H](CC(C)C)NC(=O)[C@H](N)CCCCN)NC(=O)[C@@H](CC(C)C)NC(=O)[C@@H](CCCCN)NC(=O)[C@@H](CCCCNC(=O)[C@@H](CC(C)C)NC(=O)[C@H](N)CCCCN)NC(=O)[C@@H](CC(C)C)NC(=O)[C@H](N)CCCCN)C(N)=O [MSt-181, (kl)8(kkl)4(kkl)2(kkl)] (I: H-[dK][dL][dK]([dL-dK])[dK][dL][dK][dK][dL][dK][dK][dL]-NH2 / II: H-[dK][dL][dK]([dL-dK])[dK][dL][dK][dK][dL] / III: H-[dK][dL][dK]([dL-dK])[dK][dL] / IV: H-[dK][dL][dK]([dL-dK])[dK][dL]; amide I:6-IV:C, I:9-II:C, II:6-III:C)",170,340,679
